Test results reported in PubChem BioAssay AID493003 (Sanford-Burnham Center for Chemical Genomics, 2010).

Tested on: S. cerevisiae tim10-1 mutant growth, luminescence
Assay: tim10-1 yeast growth inhibition potency – luminescence, S. cerevisiae, uHTS hits, dose response (AID 493003);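 also: yeast growth measured after about 22 hours at 25 °C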

CN1CCN(CCCN2c3ccccc3Sc3ccc(Cl)cc32)CC1
IC50: 29.1 µM
